Results deposited as PubChem BioAssay AID1259254 (NCATS, 2017)
The whole screen tested about 59,000 reagents; below is a random part of them. Over the whole deposit, about 1,550 (2.6%) are marked active. 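G2 share is only a proxy for re-replication; each gene was hit by three separate siRNAs, and active genes were retested.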 Raw values vary from plate to plate and are shown uncorrected. Entries without a mark were called inactive. Reagents against one gene are numbered here. Not given: the amount of reagent.

- Assay: 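Gene knock-downs that lead to re-replication, shown by excess G2 DNA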 (primary screen)
- Cells: human HCT116 colorectal cancer cells
- Knock-down reagent: single siRNA against human genes
- Duration: 3 days
- Read-out: 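Nuclei stained with Hoechst and imaged; cell-cycle phase assigned by DNA content; G2 share scaled per plate, non-targeting siRNA 0%, GMNN siRNA 100%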
- Scale: G2 robust z-score and G2 cells, % of GMNN control: higher = more G2 cells, more excess DNA replication; raw share of cells in G2: higher = larger share of cells with G2 DNA content
- Hit rule: 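An siRNA counts as active if its G2 robust z-score lies at least 5 MADs above the screen median; here such calls match roughly 38% of GMNN control or more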

| target | siRNA no. | G2 robust z-score | G2 cells, % of GMNN control | raw share of cells in G2 (%) |
| --- | --- | --- | --- | --- |
| IFITM2 | 1 | -0.295 | 0.89 | 4.5 |
| IFITM2 | 2 | 2.91 | 23.4 | 11.9 |
| IFITM2 | 3 | -0.895 | -3.33 | 3.68 |
| MED31 | 1 | -0.988 | -3.99 | 2.77 |
| MED31 | 2 | -0.266 | 1.1 | 4.22 |
| MED31 | 3 | 1.72 | 15 | 12.8 |
| HIGD2A | 1 | -0.295 | 0.893 | 3.26 |
| HIGD2A | 2 | 0.621 | 7.34 | 5.08 |
| HIGD2A | 3 | -0.617 | -1.37 | 3.11 |
| KIF13A | 1 | -0.907 | -3.42 | 4.23 |
| KIF13A | 2 | -0.807 | -2.71 | 3.39 |
| KIF13A | 3 | -0.543 | -0.85 | 3.92 |
| MRC2 | 1 | 3.8 | 29.7 | 14.8 |
| MRC2 | 2 | -1.26 | -5.87 | 3.06 |
| MRC2 | 3 | -0.779 | -2.52 | 2.88 |
| GPATCH4 | 1 | 1.82 | 15.8 | 13.3 |
| GPATCH4 | 2 | 0.823 | 8.76 | 7.58 |
| GPATCH4 | 3 | 0.642 | 7.49 | 7.46 |
| USP21 | 1 | -1.49 | -7.51 | 2.94 |
| USP21 | 2 | -1.4 | -6.9 | 2.47 |
| USP21 | 3 | -0.712 | -2.04 | 3.15 |
| AOC1 | 1 | -1.27 | -5.98 | 2.68 |
| AOC1 | 2 | 1.94 | 16.6 | 11 |
| AOC1 | 3 | 1.85 | 16 | 9.94 |
| COQ6 | 1 | -0.336 | 0.603 | 4.03 |
| COQ6 | 2 | -0.93 | -3.58 | 2.92 |
| COQ6 | 3 | 2.16 | 18.1 | 14.2 |
| SCX | 1 | 0.104 | 3.7 | 4.82 |
| SCX | 2 | -0.699 | -1.95 | 2.46 |
| SCX | 3 | -0.649 | -1.6 | 3.01 |
| NEUROG1 | 1 | 0.219 | 4.51 | 7.1 |
| NEUROG1 | 2 | -0.494 | -0.51 | 3.03 |
| NEUROG1 | 3 | -0.303 | 0.837 | 5.8 |
| HSPB7 | 1 | -0.827 | -2.85 | 2.74 |
| HSPB7 | 2 | -0.326 | 0.672 | 3.03 |
| HSPB7 | 3 | -1.64 | -8.55 | 2.04 |
| SYTL3 | 1 | 2.12 | 17.9 | 9.23 |
| SYTL3 | 2 | -0.679 | -1.81 | 2.54 |
| SYTL3 | 3 | 0.926 | 9.48 | 6.85 |
| SNAP25 | 1 | 0.509 | 6.55 | 6.06 |
| SNAP25 | 2 | -0.493 | -0.501 | 4.61 |
| SNAP25 | 3 | 0.0928 | 3.62 | 4.42 |
| MYL11 | 1 | -0.113 | 2.17 | 7.15 |
| MYL11 | 2 | -1.23 | -5.69 | 2.13 |
| MYL11 | 3 | 0.451 | 6.14 | 6.23 |
| WBP1L | 1 | -0.915 | -3.47 | 2.36 |
| WBP1L | 2 | -0.609 | -1.31 | 3.72 |
| WBP1L | 3 | 1.66 | 14.6 | 8.03 |

Quoted from above (5 entries):
| target | siRNA no. | G2 robust z-score | G2 cells, % of GMNN control | raw share of cells in G2 (%) |
| --- | --- | --- | --- | --- |
| SNAP25 | 3 | 0.0928 | 3.62 | 4.42 |
| MYL11 | 1 | -0.113 | 2.17 | 7.15 |
| MYL11 | 2 | -1.23 | -5.69 | 2.13 |
| MYL11 | 3 | 0.451 | 6.14 | 6.23 |
| WBP1L | 1 | -0.915 | -3.47 | 2.36 |
